PubChem BioAssay AID1671195 – Yale University – 2021
Shown is an unselected part of about 22,000 reagents tested. Over the whole deposit, about 1,510 (6.9%) are marked active. 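Active includes knockdowns raising or lowering LDL uptake; positive z-scores mean more uptake, negative mean less.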

- Purpose: 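Knockdowns that increase or decrease uptake of fluorescent LDL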 (primary screen)
- Cell system: human Huh7 hepatoma cells
- Knock-down reagent: siRNA pool against human genes, 18 nM
- Timing: about 2 to 2.5 days of knockdown, then 8 h LDL uptake
- Challenge: DiI-labelled LDL at 30 µg/ml for 8 h, in lipoprotein-deficient serum medium
- Read-out: 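Per-cell DiI-LDL intensity by automated imaging; well means scaled to the plate median and given as a robust z-score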
- Reading the numbers: robust z-score: higher = more LDL uptake after knockdown
- Hit rule: 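a gene counts as active if at least two replicate z-scores exceed ±2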

The first 2 records, to show the layout:
UTP11 (UTP11 small subunit processome component)
- robust z-score, replicate 1: -0.857
- robust z-score, replicate 2: -0.143
- robust z-score, replicate 3: 0.197
- Call: inactive

TRIM33 (tripartite motif containing 33)
- robust z-score, replicate 1: 1.97
- robust z-score, replicate 2: 0.857
- robust z-score, replicate 3: 1.38
- Call: inactive

Results, repeating the preview:
UTP11 (UTP11 small subunit processome component)
- robust z-score, replicate 1: -0.857
- robust z-score, replicate 2: -0.143
- robust z-score, replicate 3: 0.197
- Call: inactive

TRIM33 (tripartite motif containing 33)
- robust z-score, replicate 1: 1.97
- robust z-score, replicate 2: 0.857
- robust z-score, replicate 3: 1.38
- Call: inactive

NEB (nebulin)
- robust z-score, replicate 1: 0.267
- robust z-score, replicate 2: -0.273
- robust z-score, replicate 3: 0.121
- Call: inactive

ZNF300 (zinc finger protein 300)
- robust z-score, replicate 1: 0.443
- robust z-score, replicate 2: 1.73
- robust z-score, replicate 3: 0.727
- Call: inactive

GCC2 (GRIP and coiled-coil domain containing 2)
- robust z-score, replicate 1: 0.215
- robust z-score, replicate 2: 0.588
- robust z-score, replicate 3: -0.259
- Call: inactive

WWTR1 (WW domain containing transcription regulator 1)
- robust z-score, replicate 1: 0.153
- robust z-score, replicate 2: 0.608
- robust z-score, replicate 3: 1.74
- Call: inactive

MBTPS2 (membrane bound transcription factor peptidase, site 2)
- robust z-score, replicate 1: -1.3
- robust z-score, replicate 2: -1.11
- robust z-score, replicate 3: -1.11
- Call: inactive

SLC14A2
- robust z-score, replicate 1: -1.66
- robust z-score, replicate 2: -1.48
- robust z-score, replicate 3: -1.84
- Call: inactive

GPD1L (glycerol-3-phosphate dehydrogenase 1 like)
- robust z-score, replicate 1: 0.232
- robust z-score, replicate 2: 0.213
- robust z-score, replicate 3: 0.215
- Call: inactive

MAN2A2 (mannosidase alpha class 2A member 2)
- robust z-score, replicate 1: 0.91
- robust z-score, replicate 2: 0.962
- robust z-score, replicate 3: 0.545
- Call: inactive

TMEM255A (transmembrane protein 255A)
- robust z-score, replicate 1: -0.633
- robust z-score, replicate 2: -0.595
- robust z-score, replicate 3: -0.653
- Call: inactive

ZNF502 (zinc finger protein 502)
- robust z-score, replicate 1: -0.265
- robust z-score, replicate 2: -0.301
- robust z-score, replicate 3: 0.224
- Call: inactive

MALT1 (MALT1 paracaspase)
- robust z-score, replicate 1: -0.767
- robust z-score, replicate 2: -1.67
- robust z-score, replicate 3: -1.01
- Call: inactive

MSRA (methionine sulfoxide reductase A)
- robust z-score, replicate 1: 0.112
- robust z-score, replicate 2: 0.873
- robust z-score, replicate 3: 0.487
- Call: inactive

LOC389192 (retired record)
- robust z-score, replicate 1: 0.687
- robust z-score, replicate 2: -0.333
- robust z-score, replicate 3: -0.398
- Call: inactive

RECQL5 (RecQ like helicase 5)
- robust z-score, replicate 1: -1.66
- robust z-score, replicate 2: -0.921
- robust z-score, replicate 3: -1.7
- Call: inactive

LENEP (lens epithelial protein)
- robust z-score, replicate 1: 1.28
- robust z-score, replicate 2: 0.0362
- robust z-score, replicate 3: 1.57
- Call: inactive

UNC13D (unc-13 homolog D)
- robust z-score, replicate 1: 0.115
- robust z-score, replicate 2: -0.481
- robust z-score, replicate 3: -0.569
- Call: inactive

RGS9BP (regulator of G protein signaling 9 binding protein)
- robust z-score, replicate 1: -0.382
- robust z-score, replicate 2: 0.276
- robust z-score, replicate 3: 0.948
- Call: inactive

LOC442313 (retired record)
- robust z-score, replicate 1: -0.98
- robust z-score, replicate 2: -0.593
- robust z-score, replicate 3: -0.98
- Call: inactive

RNF152 (ring finger protein 152)
- robust z-score, replicate 1: -0.729
- robust z-score, replicate 2: -1.67
- robust z-score, replicate 3: -0.962
- Call: inactive

CHRNA1 (cholinergic receptor nicotinic alpha 1 subunit)
- robust z-score, replicate 1: -0.0866
- robust z-score, replicate 2: -0.136
- robust z-score, replicate 3: -0.261
- Call: inactive

PDZD7 (PDZ domain containing 7)
- robust z-score, replicate 1: -0.00432
- robust z-score, replicate 2: -0.29
- robust z-score, replicate 3: -0.362
- Call: inactive

UGT1A1 (UDP glucuronosyltransferase family 1 member A1)
- robust z-score, replicate 1: 0.864
- robust z-score, replicate 2: 1.22
- robust z-score, replicate 3: 1.75
- Call: inactive

AKAP7 (A-kinase anchoring protein 7)
- robust z-score, replicate 1: -0.513
- robust z-score, replicate 2: -1.24
- robust z-score, replicate 3: -1.55
- Call: inactive

JOSD2 (Josephin domain containing 2)
- robust z-score, replicate 1: -0.578
- robust z-score, replicate 2: -0.752
- robust z-score, replicate 3: 0.113
- Call: inactive

RASSF2 (Ras association domain family member 2)
- robust z-score, replicate 1: 0.376
- robust z-score, replicate 2: 0.0804
- robust z-score, replicate 3: 0.486
- Call: inactive

COLGALT2 (collagen beta(1-O)galactosyltransferase 2)
- robust z-score, replicate 1: 0.406
- robust z-score, replicate 2: 0.0804
- robust z-score, replicate 3: 1.41
- Call: inactive

WDR93 (WD repeat domain 93)
- robust z-score, replicate 1: -1.94
- robust z-score, replicate 2: -0.759
- robust z-score, replicate 3: -0.756
- Call: inactive

LENG1 (leukocyte receptor cluster member 1)
- robust z-score, replicate 1: -0.565
- robust z-score, replicate 2: -0.327
- robust z-score, replicate 3: -0.38
- Call: inactive
